Protein sequences, listed by entry. Tags and fused reporters are not part of them. Lines headed by an entry give the natural chain unless they say otherwise; changes in a name come on top.
UniProt Q02152: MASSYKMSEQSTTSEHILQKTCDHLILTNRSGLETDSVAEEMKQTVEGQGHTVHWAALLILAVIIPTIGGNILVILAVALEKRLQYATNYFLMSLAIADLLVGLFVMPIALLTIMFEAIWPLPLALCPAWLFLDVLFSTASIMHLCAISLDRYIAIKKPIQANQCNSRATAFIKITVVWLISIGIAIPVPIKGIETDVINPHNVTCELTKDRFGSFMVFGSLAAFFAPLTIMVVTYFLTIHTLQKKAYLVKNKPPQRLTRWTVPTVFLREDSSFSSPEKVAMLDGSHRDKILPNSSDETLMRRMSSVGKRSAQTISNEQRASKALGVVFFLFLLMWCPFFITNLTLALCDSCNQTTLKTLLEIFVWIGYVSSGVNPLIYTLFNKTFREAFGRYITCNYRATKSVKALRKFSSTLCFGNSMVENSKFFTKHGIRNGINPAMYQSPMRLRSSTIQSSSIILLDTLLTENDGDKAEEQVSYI
UniProt P34968: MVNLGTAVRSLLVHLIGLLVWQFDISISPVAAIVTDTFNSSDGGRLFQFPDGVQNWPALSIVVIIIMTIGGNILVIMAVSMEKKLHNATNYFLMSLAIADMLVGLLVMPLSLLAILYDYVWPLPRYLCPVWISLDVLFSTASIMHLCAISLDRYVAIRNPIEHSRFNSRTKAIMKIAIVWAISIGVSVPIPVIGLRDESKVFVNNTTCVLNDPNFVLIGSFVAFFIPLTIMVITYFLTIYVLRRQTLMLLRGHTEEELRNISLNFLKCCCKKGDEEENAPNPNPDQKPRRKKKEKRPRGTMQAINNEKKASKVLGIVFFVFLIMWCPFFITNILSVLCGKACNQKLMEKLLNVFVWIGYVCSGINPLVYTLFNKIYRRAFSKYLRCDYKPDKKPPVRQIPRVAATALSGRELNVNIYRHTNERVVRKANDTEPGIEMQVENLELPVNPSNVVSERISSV
UniProt P35363: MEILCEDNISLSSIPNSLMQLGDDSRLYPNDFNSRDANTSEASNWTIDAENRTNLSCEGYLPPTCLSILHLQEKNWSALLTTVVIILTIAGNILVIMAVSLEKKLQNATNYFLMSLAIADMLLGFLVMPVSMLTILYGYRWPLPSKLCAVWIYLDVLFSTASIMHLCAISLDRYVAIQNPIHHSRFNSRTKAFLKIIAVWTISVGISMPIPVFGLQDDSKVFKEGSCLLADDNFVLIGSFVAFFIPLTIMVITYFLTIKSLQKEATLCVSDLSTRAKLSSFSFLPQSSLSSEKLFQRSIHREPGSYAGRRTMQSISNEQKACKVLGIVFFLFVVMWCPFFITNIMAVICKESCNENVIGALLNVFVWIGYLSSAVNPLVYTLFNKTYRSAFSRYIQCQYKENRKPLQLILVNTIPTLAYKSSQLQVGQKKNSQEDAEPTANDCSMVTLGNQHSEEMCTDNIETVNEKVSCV

In ChEMBL document CHEMBL1129407, “Synthesis and evaluation of heterocyclic carboxamides as potential antipsychotic agents” (J Med Chem, 1996):

Molecular target: Serotonin 2 (5-HT2) receptor (Mus musculus, UniProt Q02152+P34968+P35363)
Assay: Inhibitory activity against serotonin 5-hydroxytryptamine 2 receptor from mice.
Assay type: protein assay

SMILES: Cc1nc2n(c(=O)c1CCN1CCC(c3noc4cc(F)ccc34)CC1)CCCC2 [RISPERIDONE]
- IC50: 1.5 nM
